According to PubChem BioAssay AID330 (DTP/NCI, 2004):
The list does not hold the whole screen: it gathers tests that were run many times, whatever their T/C, doses with no T/C, and many T/C values between a quarter and a half above the control. Further doses and runs are listed elsewhere. T/C is the treated group as % of the vehicle group. Some entries give survivors of the animals treated and no T/C: the source holds a T/C of zero for them, seemingly a mark for toxic or unscored doses. Some doses without a T/C left all or most animals alive at the check, yet need not have been tolerated: the source hardly ever lists a survival T/C far under the control, and the zero likely stands for such cases as well. Survivors were counted at the toxicity check, usually on the fifth day, unless a day is given; later deaths do not show. Schedule codes are those of the source, taken here to give the interval after Q, in days (D) or hours (H), and the number of doses after X. Some entries were tested several times; the results are listed from low to high. For survival time, the PubChem record calls one and a half times the control and up active, and a quarter to a half above the control has no call in these data; cut-offs in other NCI protocols can differ. Some T/C values carry the count of animals alive at the toxicity check (mostly the fifth day); without a count, all were alive then.

Tested on: P388 leukemia ip, CD2F1 mice, survival T/C
Assay: NCI In Vivo Anticancer Drug Screen. Data for tumor model P388 Leukemia (intraperitoneal) in CD2F1 (CDF1) mice
Conditions: T/C endpoint: median survival time, higher T/C = longer survival
[1] = dose: 50.0 mg/kg/injection, schedule: Q01DX005 (ip), vehicle: saline
[2] = dose: 200.0 mg/kg/injection, schedule: Q04DX002 (ip), vehicle: saline with Tween-80
[3] = dose: 400.0 mg/kg/injection, schedule: Q04DX002 (ip), vehicle: saline with Tween-80
[4] = dose: 100.0 mg/kg/injection, schedule: Q01DX009 (ip), vehicle: saline with Tween-80
[5] = dose: 240.0 mg/kg/injection, schedule: Q01DX005 (ip), vehicle: saline with Tween-80
[6] = dose: 100.0 mg/kg/injection, schedule: Q01DX005 (ip), vehicle: Klucel (hydroxypropylcellulose) (HPC)
[7] = dose: 200.0 mg/kg/injection, schedule: Q01DX005 (ip), vehicle: Klucel (hydroxypropylcellulose) (HPC)
[8] = dose: 200.0 mg/kg/injection, schedule: Q01DX009 (ip), vehicle: saline
[9] = dose: 200.0 mg/kg/injection, schedule: Q01DX009 (ip), vehicle: Klucel (hydroxypropylcellulose) (HPC)
[10] = dose: 200.0 mg/kg/injection, schedule: Q01DX005 (ip), vehicle: saline with Tween-80
[11] = dose: 100.0 mg/kg/injection, schedule: Q01DX005 (ip), vehicle: saline with Tween-80

COc1cc(C=Nc2cccc(Br)c2)ccc1N(CCCl)CCCl
T/C (dose: 2.2 mg/kg/injection, schedule: Q01DX009 (ip), vehicle: saline with Tween-80): 128 % of control | T/C (dose: 6.25 mg/kg/injection, schedule: Q01DX009 (ip), vehicle: saline with Tween-80): 138 % of control | T/C (dose: 7.5 mg/kg/injection, schedule: Q01DX009 (ip), vehicle: saline with Tween-80): 147 % of control

CS/C(=C/c1ccc2ccccc2[n+]1C)N1CCN(C)CC1
survivor count [1]: 3 of 6 | survivor count (dose: 100.0 mg/kg/injection, schedule: Q01DX005 (ip), vehicle: saline): 0 of 6 | survivor count (dose: 200.0 mg/kg/injection, schedule: Q01DX005 (ip), vehicle: saline): 0 of 6

C=C1C(=O)O[C@@H]2C3=C(C)C(=O)C=C[C@]3(C)CC[C@@H]12
survivor count [2]: 4 of 6 | survivor count [3]: 0 of 6

O=C(CC(NC(=O)OCc1ccccc1)C(=O)O)OCc1ccccc1 (stereo not given)
T/C (dose: 400.0 mg/kg/injection, schedule: Q04DX003 (ip), vehicle: saline sonified): 125 % of control [5 of 6 alive]

[Br][Sn]([Br])([S]c1ccccn1)[S]c1ccccn1
survivor count [4]: 6 of 6

Clc1ccc(N=NN2CCOC2)cc1
T/C [5]: 125 % of control

CNC(=O)N(C)C1=NC(O)(c2ccccc2)C(c2ccccc2)=N1 (stereo not given)
survivor count [2]: 6 of 6 | survivor count [3]: 5 of 6

CCC(O)(c1ccccc1)C(O)c1ccccc1 (stereo not given)
T/C (dose: 200.0 mg/kg/injection, schedule: Q01DX009 (ip), vehicle: saline + alcohol): 138 % of control [5 of 6 alive] | survivor count (dose: 400.0 mg/kg/injection, schedule: Q01DX009 (ip), vehicle: saline + alcohol): 3 of 6

O=C(Nc1c(Cl)cc(Cl)cc1Cl)ON=C1CCCCC1
survivor count [5]: 2 of 6

Nc1c(O)c(S(=O)(=O)O)c(O)c2c1C(=O)c1ccccc1C2=O
survivor count [5]: 0 of 6

O=C1c2ccccc2C=c2c1nc1c(O)ccc3cccc2c31
survivor count [6]: 4 of 6 | survivor count [7]: 0 of 6

CSc1nn(CCC#N)c(=O)[nH]c1=O
survivor count (dose: 200.0 mg/kg/injection, schedule: Q01DX005 (ip), vehicle: water): 3 of 6

CCCCCCCCCCCCCC[N+]1([O-])CCCCC1
survivor count (dose: 100.0 mg/kg/injection, schedule: Q01DX009 (ip), vehicle: saline): 6 of 6 | survivor count [8]: 0 of 6

CNc1ccc(/C=C/c2ccnc3ccccc23)cc1
T/C (dose: 12.5 mg/kg/injection, schedule: Q01DX009 (ip), vehicle: Klucel (hydroxypropylcellulose) (HPC)): 132 % of control | survivor count (dose: 25.0 mg/kg/injection, schedule: Q01DX009 (ip), vehicle: Klucel (hydroxypropylcellulose) (HPC)): 6 of 6 | survivor count (dose: 50.0 mg/kg/injection, schedule: Q01DX009 (ip), vehicle: Klucel (hydroxypropylcellulose) (HPC)): 5 of 6 | survivor count (dose: 100.0 mg/kg/injection, schedule: Q01DX009 (ip), vehicle: Klucel (hydroxypropylcellulose) (HPC)): 0 of 6 | survivor count [9]: 0 of 6 | survivor count (dose: 400.0 mg/kg/injection, schedule: Q01DX009 (ip), vehicle: Klucel (hydroxypropylcellulose) (HPC)): 0 of 6

Cc1cc[c]([Sn]([Cl])([O][Sn]([Cl])([c]2ccc(C)cc2)[c]2ccc(C)cc2)[c]2ccc(C)cc2)cc1
T/C (dose: 12.5 mg/kg/injection, schedule: Q01DX005 (ip), vehicle: saline): 132 and 141 % of control | survivor count (dose: 25.0 mg/kg/injection, schedule: Q01DX005 (ip), vehicle: saline): 1 of 6 | survivor count (dose: 50.0 mg/kg/injection, schedule: Q01DX005 (ip), vehicle: Klucel (hydroxypropylcellulose) (HPC)): 4 of 6 | survivor count [1]: 0 of 6 | survivor count [6]: 0 of 6 | survivor count [7]: 0 of 6

COc1c(OP2(=S)OCC(C)(C)CO2)cnn(C2CCCCC2)c1=O
survivor count [10]: 6 of 6

C[n+]1c(-c2ccc(/C=N/NC(=O)C(=O)N/N=C/c3ccc(-c4cn5ccccc5[n+]4C)cc3)cc2)cn2ccccc21
survivor count (dose: 30.0 mg/kg/injection, schedule: Q01DX005 (ip), vehicle: saline): 3 of 6 | survivor count (dose: 60.0 mg/kg/injection, schedule: Q01DX005 (ip), vehicle: saline): 0 of 6 | survivor count (dose: 120.0 mg/kg/injection, schedule: Q01DX005 (ip), vehicle: saline): 0 of 6 | survivor count (dose: 240.0 mg/kg/injection, schedule: Q01DX005 (ip), vehicle: saline): 0 of 6

CC1CC(C)C(C)C(CNCC2CC(C)CC(C)C2C)C1 (stereo not given)
survivor count [10]: 0 of 5

O=C(NCCCCCCCCCNC(=O)C12CC3CC(CC(C3)C1)C2)C12CC3CC(CC(C3)C1)C2
survivor count (dose: 50.0 mg/kg/injection, schedule: Q01DX005 (ip), vehicle: saline with Tween-80): 6 of 6 | survivor count [11]: 6 of 6

O=C(Nc1ccc(S(=O)(=O)O)cc1)c1ccc([N+](=O)[O-])cc1
survivor count [8]: 6 of 6

C=C(C)[C@@]12OC3(/C=C/C=C/CCCCC)O[C@@H]1[C@@H]1[C@@H]4O[C@]4(CO)[C@@H](O)[C@]4(O)C(=O)C(C)=C[C@H]4[C@@]1(O3)[C@H](C)[C@H]2OC(=O)c1ccccc1
T/C (dose: 0.2 mg/kg/injection, schedule: Q01DX009 (ip), vehicle: saline + alcohol): 127 % of control | T/C (dose: 0.4 mg/kg/injection, schedule: Q01DX009 (ip), vehicle: saline + alcohol): 132 % of control | T/C (dose: 0.8 mg/kg/injection, schedule: Q01DX009 (ip), vehicle: saline + alcohol): 137 % of control | T/C (dose: 6.2 micrograms/kg/injection, schedule: Q01DX009 (ip), vehicle: saline + alcohol): 132 % of control | T/C (dose: 12.5 micrograms/kg/injection, schedule: Q01DX009 (ip), vehicle: saline + alcohol): 129 % of control | T/C (dose: 25.0 micrograms/kg/injection, schedule: Q01DX009 (ip), vehicle: saline + alcohol): 145 % of control | survivor count (dose: 50.0 micrograms/kg/injection, schedule: Q01DX009 (ip), vehicle: saline + alcohol): 6 of 6 | survivor count (dose: 100.0 micrograms/kg/injection, schedule: Q01DX009 (ip), vehicle: saline + alcohol): 5 of 6 | survivor count (dose: 200.0 micrograms/kg/injection, schedule: Q01DX009 (ip), vehicle: saline + alcohol): 0 of 6

O=[N+]([O-])c1cccc(C(O)(C(F)(F)F)C(F)(F)F)c1
survivor count (dose: 200.0 mg/kg/injection, schedule: Q04DX002 (ip), vehicle: suspension in saline): 4 of 6 | survivor count (dose: 400.0 mg/kg/injection, schedule: Q04DX002 (ip), vehicle: suspension in saline): 0 of 6

COc1ccccc1C1OC2=C(Nc3ccc(Cl)cc3N2)C1=O (stereo not given)
survivor count (dose: 60.0 mg/kg/injection, schedule: Q01DX005 (ip), vehicle: Klucel (hydroxypropylcellulose) (HPC)): 6 of 6 | survivor count (dose: 120.0 mg/kg/injection, schedule: Q01DX005 (ip), vehicle: Klucel (hydroxypropylcellulose) (HPC)): 6 of 6 | survivor count (dose: 240.0 mg/kg/injection, schedule: Q01DX005 (ip), vehicle: Klucel (hydroxypropylcellulose) (HPC)): 4 of 6

O=C(O)c1c2ccccc2nc2ccccc12
survivor count [11]: 0 of 5 and 3 of 5 | survivor count [10]: 0 of 5

CCCC1(CC(=O)O)OCCc2c1[nH]c1ccccc21 (stereo not given)
survivor count [9]: 3 of 6

COc1ccc(/C=N/n2cnc3c(sc4ccccc43)c2=O)cc1
survivor count [6]: 6 of 6

Cc1ccc(S(=O)(=O)N(CCC(c2ccccc2)c2ccccc2)S(=O)(=O)c2ccc(C)cc2)cc1
survivor count [4]: 6 of 6 | survivor count (dose: 200.0 mg/kg/injection, schedule: Q01DX009 (ip), vehicle: saline with Tween-80): 6 of 6 | survivor count (dose: 400.0 mg/kg/injection, schedule: Q01DX009 (ip), vehicle: saline with Tween-80): 6 of 6

CS(=O)(=O)c1cc([N+](=O)[O-])cc([N+](=O)[O-])c1Cl
survivor count (dose: 10.0 mg/kg/injection, schedule: Q01DX009 (ip), vehicle: saline with Tween-80): 6 of 6
